According to US20100184770A1, “COMPOUNDS” (Glaxo Group Limited, priority 2006, published 2010):
Some results were stated once for a whole list of compounds, not compound by compound.

The chains behind the UniProt entries cited, without tags or fusion partners.
UniProt Q9Y5N1, whole entry, species assumed: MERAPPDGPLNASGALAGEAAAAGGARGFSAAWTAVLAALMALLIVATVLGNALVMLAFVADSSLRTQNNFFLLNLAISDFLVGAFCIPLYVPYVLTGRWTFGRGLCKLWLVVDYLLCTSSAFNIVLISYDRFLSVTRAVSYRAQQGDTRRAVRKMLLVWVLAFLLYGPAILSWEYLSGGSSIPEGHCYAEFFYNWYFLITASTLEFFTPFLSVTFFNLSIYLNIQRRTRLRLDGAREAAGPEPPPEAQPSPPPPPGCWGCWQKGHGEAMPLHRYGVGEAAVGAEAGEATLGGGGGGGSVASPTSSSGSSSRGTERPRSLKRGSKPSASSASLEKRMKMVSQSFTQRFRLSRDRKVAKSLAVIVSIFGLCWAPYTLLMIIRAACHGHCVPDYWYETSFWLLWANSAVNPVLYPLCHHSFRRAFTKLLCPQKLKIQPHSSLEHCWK

Molecular target: T1, histamine H3 receptor (Homo sapiens, UniProt Q9Y5N1)
T1 construct: expressed in transfected cells; host or cells: CHO K1 cells with pSwitch/pGene (GeneSwitch), clone 3H3, mifepristone-induced; membranes
Experiment: Histamine H3 functional antagonist assay ([35S]-GTPγS, membranes)
Type: biochemical
Conditions: histamine at EC80
Description: The histamine H3 cDNA is isolated from its holding vector, pcDNA3.1 TOPO (InVitrogen), by restriction digestion of plasmid DNA with the enzymes BamH1 and Not-1 and is ligated into the inducible expression vector pGene (InVitrogen) digested with the same enzymes. The GeneSwitch™ system (a system where in transgene expression is switched off in the absence of an inducer and switched on in the presence of an inducer) is performed as described in U.S. Pat. Nos. 5,364,791; 5,874,534; and 5,935,934. Ligated DNA is transformed into competent DH5α E. coli host bacterial cells and is plated onto Luria Broth (LB) agar containing Zeocin™ (an antibiotic which allows the selection of cells expressing the sh ble gene which is present on pGene and pSwitch) at 50 μgml^−1. Colonies containing the re-ligated plasmid are identified by restriction analysis. […]
10-14 days post selection, 10 nM Mifepristone (InVitrogen) is added to the culture medium to induce the expression of the receptor. […] Receptor bound antibody is detected by incubation of the cells for 60 min on ice with a goat anti rabbit antibody, conjugated with Alexa 488 fluorescence marker (Molecular Probes). Following two further washes with Sorting Medium, cells are filtered through a […] Filcon™ (BD Biosciences) and then are analysed on a FACS Vantage SE Flow Cytometer fitted with an Automatic Cell Deposition Unit. […]

Question: O=C(CC(F)(F)F)NCCN1CCC[C@@H]1Cn1nc(Cc2ccc(Cl)cc2)c2ccccc2c1=O.O=C(O)C(F)(F)F [Example 36b, N-[2-((2R)-2-{[4-[(4-chlorophenyl)methyl]-1-oxo-2(1H)-phthalazinyl]methyl}-1-pyrrolidinyl)ethyl]-3,3,3-trifluoropropanamide, trifluoroacetate] was tested. Which “average pKi (pKb) at H3” value did it give?
Answer: < 6.5
